Values from PubChem BioAssay AID1259308 (NCATS, 2017)
This is a random part of about 59,000 reagents tested. About 1,510 of all reagents (2.6%) were called active. 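Calls use total luciferase alone and ignore viability, so some active siRNAs may act by altering cell number.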 The numbers tell different reagents against one gene apart.

Screen: 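Genes whose loss raises luciferase production in HEK293 cells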 (primary screen)
Cells: human HEK293 embryonic kidney cells stably expressing firefly luciferase (HEK-CMV-Luc2-Hygro)
Knock-down reagent: single siRNA against human genes, 0.8 pmol siRNA per well
Timing: 72 h
Measurement: 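Reporter luminescence and viable-cell signal on separate replicate plates, given as percent of non-targeting control and median/MAD z-scores, plus per-cell luciferase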
Scale: total luciferase, z-score and total luciferase, % of control: higher = more reporter protein produced; luciferase per cell, z-score: higher = more reporter output per viable cell; viable cells, % of control: higher = more viable cells
Active means: 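Active when the median/MAD z-score for overall luciferase is greater than 3; a gene was taken forward for validation with new siRNAs if at least two of its three siRNAs passed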
Calls: active = raised luciferase; inactive = no rise

target	siRNA no.	total luciferase, z-score	total luciferase, % of control	luciferase per cell, z-score	viable cells, % of control	call
AUH (GeneID 549)	1	2.85	138	2.33	83.8	inactive
AUH (GeneID 549)	2	-0.59	70.1	-0.827	97.5	inactive
AUH (GeneID 549)	3	-0.65	69	-0.15	80.2	inactive
GATA5 (GeneID 140628)	1	0.539	92.6	0.103	101	inactive
GATA5 (GeneID 140628)	2	1.15	105	1.64	76.1	inactive
GATA5 (GeneID 140628)	3	-0.144	79	-0.471	100	inactive
ZNF223 (GeneID 7766)	1	0.463	91.1	0.512	89	inactive
ZNF223 (GeneID 7766)	2	2.36	129	1.06	109	inactive
ZNF223 (GeneID 7766)	3	-0.0984	79.9	-0.827	111	inactive
RHOBTB1 (GeneID 9886)	1	-1.11	59.8	-1.06	88.3	inactive
RHOBTB1 (GeneID 9886)	2	-1.07	60.7	0.11	65.9	inactive
RHOBTB1 (GeneID 9886)	3	-2.51	31.9	-2.7	72.6	inactive
RAB6B (GeneID 51560)	1	-0.148	78.9	-0.434	98.9	inactive
RAB6B (GeneID 51560)	2	1.42	110	1.09	92.5	inactive
RAB6B (GeneID 51560)	3	0.445	90.7	-0.101	104	inactive
ASNSD1 (GeneID 54529)	1	0.287	87.6	-0.196	103	inactive
ASNSD1 (GeneID 54529)	2	-0.176	78.4	-0.102	90	inactive
ASNSD1 (GeneID 54529)	3	1.04	103	0.793	93	inactive
ARHGEF4 (GeneID 50649)	1	1.99	121	1.32	95.8	inactive
ARHGEF4 (GeneID 50649)	2	-1.51	51.8	-1.5	86	inactive
ARHGEF4 (GeneID 50649)	3	-0.0502	80.9	-0.38	99.9	inactive
AMOT (GeneID 154796)	1	-1.42	53.6	-0.174	62.8	inactive
AMOT (GeneID 154796)	2	1.12	104	0.724	96.1	inactive
AMOT (GeneID 154796)	3	3.68	155	2.95	79.8	active
KATNA1 (GeneID 11104)	1	0.992	102	1.19	83	inactive
KATNA1 (GeneID 11104)	2	2.45	131	1.38	101	inactive
KATNA1 (GeneID 11104)	3	-0.345	75	-0.443	94.2	inactive
UPK1B (GeneID 7348)	1	1.22	106	0.71	98.4	inactive
UPK1B (GeneID 7348)	2	2.37	129	3.06	64.5	inactive
UPK1B (GeneID 7348)	3	1.87	119	1.48	90.2	inactive
PDE8B (GeneID 8622)	1	-0.565	70.6	-0.867	99.2	inactive
PDE8B (GeneID 8622)	2	-1.29	56.2	-2.09	109	inactive
PDE8B (GeneID 8622)	3	-1.11	59.9	-1.09	89	inactive
R3HCC1 (GeneID 203069)	1	5.77	197	4.05	75.6	active
R3HCC1 (GeneID 203069)	2	-2.33	35.5	-1.56	59.8	inactive
R3HCC1 (GeneID 203069)	3	-0.291	76.1	-0.11	87.5	inactive
KLHL35 (GeneID 283212)	1	-2.07	40.7	-0.986	59	inactive
KLHL35 (GeneID 283212)	2	0.399	89.8	1.13	74.6	inactive
KLHL35 (GeneID 283212)	3	0.349	88.8	0.214	93.8	inactive
KLHL18 (GeneID 23276)	1	-0.615	69.7	-0.299	84.2	inactive
KLHL18 (GeneID 23276)	2	-1.87	44.8	-1.77	79.6	inactive
KLHL18 (GeneID 23276)	3	0.684	95.5	0.833	85.7	inactive

8 consecutive entries already listed:
target	siRNA no.	total luciferase, z-score	total luciferase, % of control	luciferase per cell, z-score	viable cells, % of control	call
UPK1B (GeneID 7348)	2	2.37	129	3.06	64.5	inactive
UPK1B (GeneID 7348)	3	1.87	119	1.48	90.2	inactive
PDE8B (GeneID 8622)	1	-0.565	70.6	-0.867	99.2	inactive
PDE8B (GeneID 8622)	2	-1.29	56.2	-2.09	109	inactive
PDE8B (GeneID 8622)	3	-1.11	59.9	-1.09	89	inactive
R3HCC1 (GeneID 203069)	1	5.77	197	4.05	75.6	active
R3HCC1 (GeneID 203069)	2	-2.33	35.5	-1.56	59.8	inactive
R3HCC1 (GeneID 203069)	3	-0.291	76.1	-0.11	87.5	inactive

The list goes on.
target	siRNA no.	total luciferase, z-score	total luciferase, % of control	luciferase per cell, z-score	viable cells, % of control	call
ADGRL2 (GeneID 23266)	1	-0.136	79.2	-1.06	117	inactive
ADGRL2 (GeneID 23266)	2	-0.319	75.5	-0.513	96.6	inactive
ADGRL2 (GeneID 23266)	3	0.107	84	-0.538	108	inactive
DERA (GeneID 51071)	1	-0.37	74.5	-1.1	111	inactive
DERA (GeneID 51071)	2	0.92	100	1.45	76.5	inactive
DERA (GeneID 51071)	3	-0.948	63	-0.298	76.2	inactive
NFYA (GeneID 4800)	1	1.07	103	0.595	98.5	inactive
NFYA (GeneID 4800)	2	7.76	236	5.46	62.7	active
NFYA (GeneID 4800)	3	1.57	113	1.58	83.4	inactive
NANOS1 (GeneID 340719)	1	-0.0362	81.2	-0.18	95.1	inactive
NANOS1 (GeneID 340719)	2	0.44	90.6	-0.251	108	inactive
NANOS1 (GeneID 340719)	3	1.04	103	0.327	105	inactive
NXF1 (GeneID 10482)	1	-2.39	34.3	0.6	32.8	inactive
NXF1 (GeneID 10482)	2	-2.59	30.3	-0.276	36.4	inactive
NXF1 (GeneID 10482)	3	-1.46	52.9	-1.35	84.3	inactive
ZNF747 (GeneID 65988)	1	0.966	101	0.854	90.2	inactive
ZNF747 (GeneID 65988)	2	2.19	125	1.56	93	inactive
ZNF747 (GeneID 65988)	3	-0.282	76.3	-0.367	93.9	inactive
PON1 (GeneID 5444)	1	0.888	99.6	0.955	86.5	inactive
PON1 (GeneID 5444)	2	-0.542	71.1	-0.3	86	inactive
PON1 (GeneID 5444)	3	0.1	83.9	-0.766	115	inactive
SETD9 (GeneID 133383)	1	0.294	87.7	0.601	83.7	inactive
SETD9 (GeneID 133383)	2	-0.184	78.2	-0.702	105	inactive
SETD9 (GeneID 133383)	3	-0.759	66.8	-0.497	85.1	inactive
RUFY1 (GeneID 80230)	1	-0.775	66.5	-0.0703	75.7	inactive
RUFY1 (GeneID 80230)	2	-0.804	65.9	-0.0614	74.8	inactive
RUFY1 (GeneID 80230)	3	-0.103	79.8	-0.508	102	inactive
ZGPAT (GeneID 84619)	1	1.12	104	0.844	93.2	inactive
ZGPAT (GeneID 84619)	2	-1.16	58.9	-0.378	72.7	inactive
ZGPAT (GeneID 84619)	3	0.572	93.3	0.675	87.2	inactive
LRRC41 (GeneID 10489)	1	-0.667	68.6	-0.566	89	inactive
LRRC41 (GeneID 10489)	2	0.386	89.6	0.516	87.4	inactive
LRRC41 (GeneID 10489)	3	0.569	93.2	0.941	81.3	inactive
